Laboratory results published in patent US20060134746.
Construct, isoform or probe ends are uncertain for at least one entry.

Experiments:
Assay in all cases: activity in cells
[1] = target: OMeYRS (3A7) (Escherichia coli) (UniProt P07813); settings: hSOD-33TAG amber suppression in yeast only with 1 mM O-methyl tyrosine; protein in cells
[2] = target: nbCRS (3H11) (Escherichia coli) (UniProt P07813); settings: hSOD-33TAG amber suppression in yeast only with 1 mM o-nitrobenzyl cysteine; protein in cells
[3] = target: C8RS (1G8) (Escherichia coli) (UniProt P07813); settings: hSOD-33TAG amber suppression in yeast only with 1 mM alpha-aminocaprylic acid; protein in cells
[4] = target: azobenzyl-PheRS (Methanococcus jannaschii) (UniProt Q57834); settings: myoglobin-75TAG amber suppression in E. coli only with 1 mM azobenzyl-Phe; protein in cells

Sequence | functional effect [1] | functional effect [2] | functional effect [3] | functional effect [4]
GCCCGGAUGGUGGAAUCGGUAGACACAAGGGAUUCUAAAUCCCUCGGCGUUCGCGCUGUGCGGGUUCAAGUCCCGCUCCGGGUACCA [Leu5CUA amber suppressor tRNA] | active | active | active | –
CCGGCGGUAGUUCAGCAGGGCAGAACGGCGGACUCUAAAUCCGCAAGGCGCUGGUUCAAAUCCGGCUCGCCGGACCA [mutant MjtRNATyrCUA] | – | – | – | active
